In patent US20260265267A1, “NOVEL COMPOUNDS WITH MTORC2-INHIBITORY ACTIVITY AND USES THEREOF” (Aliad Biopharma, priority 2023, published 2026):
Some results were stated once for a whole list of compounds, not compound by compound. Some compounds share one range, which may span the group rather than tell each member.

What follows are compounds tested against mTORC2 (Rattus norvegicus, UniProt P42346) (assay: Inhibition of mGluR1/5-dependent (DHPG-induced) mTORC2 activation in dendritic spines of primary cultured hippocampal neurons). Conditions: hippocampal neurons (DIV21), 500 nM, pretreated 2 hours, DHPG 10 minutes; 0.5 µM.
Assay type: cell-based

SMILES | pAKT(S473) + PSD95 + puncta per 20 μm (% inhibition of DHPG induction)
CN(C)c1cc2c(cc1F)C(=O)c1cc3c(cc1OC2)OCO3 [HN2209, 8-(dimethylamino)-9-fluoro[2]benzoxepino[3,4-f]-1,3-benzodioxol-11(6H)-one] | 68-1240 % inhibition of DHPG induction
O=C1c2cc(F)c(N3CCOCC3)cc2COc2cc3c(cc21)OCO3 [HN2210, 8-(morpholino)-9-fluoro[2]benzoxepino[3,4-f]-1,3-benzodioxol-11(6H)-one] | 68-1240 % inhibition of DHPG induction
O=C1c2cc(F)c(NCc3ccccc3)cc2COc2cc3c(cc21)OCO3 [HN2213, 8-(benzylamino)-9-fluoro[2]benzoxepino[3,4-f]-1,3-benzodioxol-11(6H)-one] | 68-1240 % inhibition of DHPG induction
O=C1c2cc(-c3ccoc3)ccc2COc2cc3c(cc21)OCO3 [HN2216, 9-(3-furanyl)[2]benzoxepino[3,4-f]-1,3-benzodioxol-11(6H)-one] | 68-1240 % inhibition of DHPG induction
COc1cc2c(cc1OC)C(=O)c1cc(Br)ccc1CS2 [HN2304, 9-bromo-2,3-dimethoxydibenzo[b,e]thiepin-11(6H)-one] | 68-1240 % inhibition of DHPG induction
COc1cc2c(cc1OC)C(=O)c1cc(-c3ccoc3)ccc1CS2 [HN2308, 9-(3-furanyl)-2,3-dimethoxydibenzo[b,e]thiepin-11(6H)-one] | 68-1240 % inhibition of DHPG induction
COc1cc2c(cc1OC)C(=O)c1cc(-c3ccc(Cl)cc3)ccc1CS2 [HN2309, 9-(4-chlorophenyl)-2,3-dimethoxydibenzo[b,e]thiepin-11(6H)-one] | 68-1240 % inhibition of DHPG induction
